Measurements: PubChem BioAssay AID2685 (National Center for Advancing Translational Sciences (NCATS), 2010)
This is one part of the list. The main result of the screen is listed elsewhere. These columns were measured beside it and carry no call. Most of these compounds were active or inconclusive in the main read-out, so they are no random draw. Potencies come from curve fits of mixed quality, noted in brackets.

Test: qHTS Assay for Lipid Storage Modulators in Drosophila S3 Cells;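 for cell number change: cells counted by Cell Tracker Red CMTPX staining in the red channel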
Conditions: BODIPY lipid droplet fluorescence, 18-24 h; for cell number change: measured here: cell count max response, cells fed with added oleic acid
In short: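 Drosophila S3 cells got compounds at several concentrations plus oleic acid (400 uM solution). Laser-scanning cytometry with 488 nm excitation read lipid droplets at 500-530 nm and cells at 575-640 nm. Percent activity was relative to 20 uM Triacsin C.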

[1] = measured here: cell number channel AC50, cells fed with added oleic acid
[2] = measured here: lipid fluorescence (Fed channel) AC50, cells fed with added oleic acid

| Structure (SMILES) | cell number change [%] | AC50 [1] | AC50 [2] |
| --- | --- | --- | --- |
| C=CCC(NCc1ccccc1)c1ccc(Cl)cc1 (stereo not drawn) | -35.2 | 25.9 µM [falling, partial curve] | 2.31 µM [falling, single point] |
| O=C(C1CCN(S(=O)(=O)c2ccc(-n3cnnn3)cc2)CC1)N1CCN(c2ccccc2)CC1 | 74.9 | 29.1 µM [rising, single point] |  |
| O=C(OCn1nnc2ccccc2c1=O)C1CCCCC1 | -0.233 |  | 0.0116 µM [rising, full curve, poor fit] |
| Cc1cc2ncn(CCC(=O)NC3CCCC3)c2cc1C | -30.5 |  |  |
| CNC(=O)NC(=O)CSc1cccc(C(F)(F)F)c1 |  |  | 0.092 µM [falling, full curve] |
| COC(=O)N/N=C/c1ccc(-c2cc(Cl)ccc2Cl)o1 | -21.9 |  | 20.6 µM [falling, single point] |
| CS(=O)(=O)c1ccc(Cl)c(C(=O)OCC(=O)NC2CCCCCCC2)c1 | 13.4 |  |  |
| CCc1cccc(C)c1NC(=O)c1cc(C)oc1C | -13.4 |  | 0.411 µM [rising, full curve, poor fit] |
| O=C(C1CCCN1C(=O)c1cccs1)N1CCc2ccccc21 (stereo not drawn) | -16 |  | 0.92 µM [rising, full curve, poor fit] |
| Clc1ccccc1CN(Cc1ccccc1)C(c1cccs1)c1nnnn1C1CCCC1 (stereo not drawn) | -34.8 | 18.4 µM [falling, partial curve, poor fit] | 1.84 µM [falling, partial curve] |
| CN(c1ccccc1C(=O)Nc1ccccc1C(=O)NCc1ccco1)S(C)(=O)=O | 1.14 |  | 10.3 µM [falling, partial curve] |
| COCCC(=O)N1CCC(Oc2ccc(C(=O)N(C)C3CCCCC3)cc2)CC1 | 8.39 |  | 6.51 µM [falling, single point] |
| O=C1NC2(CCCCO2)CO1 (stereo not drawn) | -6.89 |  | 9.2 µM [rising, partial curve, poor fit] |
| CN1CCc2c(sc3c2c(=O)n(-c2ccc(Cl)cc2)c2nncn32)C1 | -30.1 | 29.1 µM [falling, single point] |  |
| O=c1[nH]c2ccccc2n2c(-c3ccccc3)nnc12 | -24.2 |  | 0.00517 µM [falling, full curve, poor fit] |
| Cn1cnnc1SCC(=O)Nc1ccc2nc(SCc3cccc4ccccc34)sc2c1 | 121 | 9.2 µM [rising, partial curve] | 9.2 µM [rising, partial curve] |
| Cc1ccccc1C(=O)Nc1nc2c(C)csc2c(=O)s1 | 55.8 | 5.17 µM [rising, partial curve] | 2.31 µM [rising, single point] |
| Nc1nc(SCC(=O)N2CCc3ccccc32)[nH]c(=O)c1-c1ccccc1 | 3.17 |  |  |
| CC(=O)c1cc(F)c(N2CCN(C(=O)C(C)(C)C)CC2)cc1C | -74 | 18.4 µM [falling, single point] | 29.1 µM [falling, partial curve, poor fit] |

Laid out differently: results already given
Structure (SMILES),cell number change [%],AC50 [1],AC50 [2]
C=CCC(NCc1ccccc1)c1ccc(Cl)cc1 (stereo not drawn),-35.2,"25.9 µM [falling, partial curve]","2.31 µM [falling, single point]"
CS(=O)(=O)c1ccc(Cl)c(C(=O)OCC(=O)NC2CCCCCCC2)c1,13.4,,

(cont.)

| Structure (SMILES) | cell number change [%] | AC50 [1] | AC50 [2] |
| --- | --- | --- | --- |
| Cc1ccc(C2CC(c3cccs3)n3nc(N)nc3N2)cc1 (stereo not drawn) | -0.897 |  | 29.1 µM [falling, single point] |
| CC(=O)NCc1ccc(C(=O)CCl)s1 |  |  | 14.6 µM [falling, partial curve] |
| Cc1noc(C)c1S(=O)(=O)N(CC(=O)Nc1ccc2c(c1)OCO2)c1ccc(C(C)C)cc1 | 19 | 2.91 µM [rising, single point] | 1.64 µM [rising, partial curve] |
| C=CCc1ccc(OCCOCCN(C)C)c(OC)c1 | -37.8 | 29.1 µM [falling, single point] | 29.1 µM [falling, single point] |
| COc1cc(OC)c(NC(=O)/C=C/C(=O)O)cc1Cl | 32.1 | 1.64 µM [rising, full curve] | 0.92 µM [rising, full curve] |
| CSc1nc2ncc(C#N)cn2n1 | 34.9 |  |  |
| C/C(=N/NC(=O)Cc1ccccc1)c1ccc(C)s1 |  |  | 0.326 µM [rising, single point] |
| CN(C)S(=O)(=O)c1ccc(SCC(=O)N2CC(=O)Nc3ccccc32)nc1 | 14.7 |  | 25.9 µM [rising, single point] |
| COc1ccc(S(=O)(=O)CCC(=O)NCCc2cccc(C)c2)cc1 |  | 3.26 µM [rising, partial curve] |  |
| N#C/C(=C\c1cccc(O)c1)C(=O)N1CCCCC1 | -27.9 |  | 14.6 µM [falling, partial curve, poor fit] |
| CSc1ccc(/C=N/N2CCN(C)CC2)cc1 | 10.4 |  | 0.517 µM [falling, partial curve, poor fit] |
| CC(C)(C)NC(=O)CN(C(=O)CCC(=O)Nc1nccs1)c1ccc2c(c1)OCCO2 | 21.4 |  | 6.51 µM [rising, single point] |
| CCSC1=C(C#N)C2(CCCC2)C(C#N)=C(N)N1 | -41.2 | 32.6 µM [falling, single point] |  |
| CCc1noc(C)c1C(=O)NNC(=O)c1cc(OC)cc(OC)c1 | -38.2 | 32.6 µM [falling, partial curve, poor fit] | 32.6 µM [falling, partial curve, poor fit] |
| Cc1ccc(NC(=O)NC(=O)c2cnccc2C(F)(F)F)c(C)c1 | -51.7 | 14.6 µM [falling, single point] | 18.4 µM [falling, single point] |
| Cc1cc(N2CCCC2)nc(N2C3CCC2CC(O)(c2ccc(F)cc2)C3)n1 (stereo not drawn) | 4.3 |  | 0.517 µM [falling, single point] |
| Cc1ccc(NC(=O)NC2CCCCC2)c(C)c1 | -14.3 |  | 6.51 µM [rising, partial curve, poor fit] |
| Cc1nc(Oc2ccccc2)c2oc3ccccc3c2n1 | 154 | 9.2 µM [rising, partial curve] | 7.31 µM [rising, partial curve] |
| N/C(=N\OC(=O)c1ccc(Cl)cc1)c1cccnc1 | 4.34 |  |  |
